Experimental data reported in the supplement of paper PMC9015667.
Counter-ions that a name gives are not always drawn. The list shows a part of the results. Many values rest on one well or one pass, so single values are uncertain.

Columns and labels:
Assay in all cases: reduction in cell viability relative to untreated/vehicle; higher = more growth inhibition
Settings in all cases: 200 nM; 72 h
M229P = tested on: M229P (parental melanoma line)
M229R = tested on: M229R (matched melanoma line resistant to BRAF inhibitors)
M238P = tested on: M238P (parental melanoma line)
M238R = tested on: M238R (matched melanoma line resistant to BRAF inhibitors)
M249P = tested on: M249P (parental melanoma line)
M249R = tested on: M249R (matched melanoma line resistant to BRAF inhibitors)
UACC62P = tested on: UACC62P (parental melanoma line)
UACC62R = tested on: UACC62R (matched melanoma line resistant to BRAF inhibitors)

SMILES	reduction in cell viability (M229P) [%]	reduction in cell viability (M229R) [%]	reduction in cell viability (M238P) [%]	reduction in cell viability (M238R) [%]	reduction in cell viability (M249P) [%]	reduction in cell viability (M249R) [%]	reduction in cell viability (UACC62P) [%]	reduction in cell viability (UACC62R) [%]
COC[C@H](NC(=O)c1cnc(C)s1)C(=O)N[C@@H](COC)C(=O)N[C@@H](Cc1ccccc1)C(=O)[C@@]1(C)CO1 [Oprozomib]	89.3	87	87.7	86.2	84.3	92.3	81.2	80.5
CC(N)C12CC3CC(CC(C3)C1)C2 (stereo unspecified) [Rimantadine]	< 0	< 0	< 0	< 0	< 0	< 0	< 0	< 0
NC(=O)c1cccc2cn(-c3ccc([C@@H]4CCCNC4)cc3)nc12 [Niraparib]	< 0	< 0	< 0	< 0	2.75	< 0	< 0	< 0
CCCCc1nc2cc(/C=C/C(=O)NO)ccc2n1CCN(CC)CC [Pracinostat]	< 0	6.79	3.65	< 0	< 0	1.2	< 0	14.5
CN1CCN(c2cccc(Nc3nc4c(-c5ccc(S(C)(=O)=O)cc5)cccn4n3)c2)CC1	< 0	< 0	< 0	< 0	< 0	< 0	2.38	2.39
COc1ccc(-c2cc3c(C)nc(N)nc3n([C@H]3CC[C@H](OCCO)CC3)c2=O)cn1	17.2	37.5	38.8	40.5	18.7	38.3	15.4	25.1
O=C(O)c1cccnc1 [Niacin]	< 0	< 0	< 0	< 0	0.94	7.17	0.85	< 0
Clc1ccc(-c2nc3sccn3c2/C=N/OCc2ccc(Cl)c(Cl)c2)cc1	< 0	< 0	< 0	< 0	< 0	< 0	< 0	< 0
Clc1ccc(C(Cn2ccnc2)OCc2ccsc2Cl)c(Cl)c1 (stereo unspecified) [Tioconazole]	< 0	< 0	< 0	< 0	< 0	< 0	< 0	< 0
CCCCCOC(=O)Nc1nc(=O)n([C@@H]2O[C@H](C)[C@@H](O)[C@H]2O)cc1F [Capecitabine]	< 0	< 0	< 0	< 0	< 0	< 0	< 0	< 0
O=C(O)C(O)Cc1ccc(O)c(O)c1 (stereo unspecified) [Sodium Danshensu]	< 0	< 0	< 0	< 0	< 0	< 0	23.6	< 0
CO[C@H]1C[C@@H]2CC[C@@H](C)[C@@](O)(O2)C(=O)C(=O)N2CCCC[C@H]2C(=O)O[C@H]([C@H](C)C[C@@H]2CC[C@@H](O)[C@H](OC)C2)CC(=O)[C@H](C)/C=C(\C)[C@@H](O)[C@@H](OC)C(=O)[C@H](C)C[C@H](C)/C=C/C=C/C=C/1C [Rapamycin]	< 0	12.1	11.1	< 0	7.22	7.49	18.3	< 0
Clc1ccc(C(Cn2ccnc2)OCc2c(Cl)cccc2Cl)c(Cl)c1 (stereo unspecified) [Isoconazole nitrate]	< 0	< 0	< 0	< 0	< 0	< 0	< 0	< 0
CCOC(=O)c1ccc(C#Cc2ccc3c(c2)C(C)(C)CCS3)nc1 [Tazarotene]	< 0	2.03	< 0	< 0	< 0	< 0	11.9	< 0
CC(C)C(=O)Oc1ccc(CO)cc1[C@H](CCN(C(C)C)C(C)C)c1ccccc1 [Fesoterodine fumarate]	< 0	< 0	< 0	< 0	< 0	< 0	< 0	< 0
O=C1c2c(O)ccc(O)c2C(=O)c2c(NCCNCCO)ccc(NCCNCCO)c21 [Mitoxantrone]	79.9	70.5	88.5	85.9	84	84	87.5	81.9
CC(C)c1cnn2c(NCc3ccccc3)cc(N[C@@H](CO)[C@H](O)CO)nc12	< 0	< 0	25	< 0	< 0	< 0	23.4	44.4
C[C@H]1[C@H](C)CC[C@]2(C(=O)O)CC[C@]3(C)C(=CC[C@@H]4[C@@]5(C)CC[C@H](O)C(C)(C)[C@@H]5CC[C@]43C)[C@H]12 [Ursolic acid]	< 0	< 0	< 0	< 0	< 0	< 0	< 0	< 0
Cc1ccc(NC(=O)c2ccc(CN3CCN(C)CC3)cc2)cc1Nc1nccc(-c2cccnc2)n1 [Imatinib]	< 0	< 0	< 0	< 0	< 0	< 0	0.37	< 0
COc1cc(OC)c(NC(=O)Nc2cc(C)on2)cc1Cl	< 0	< 0	< 0	< 0	< 0	< 0	< 0	< 0
COc1cc2nc(-c3cc(F)ccc3O)nc(N[C@@H]3CNC[C@H]3C(C)(C)O)c2cc1OC	< 0	< 0	< 0	< 0	< 0	< 0	< 0	< 0

SMILES	reduction in cell viability (M229P) [%]	reduction in cell viability (M229R) [%]	reduction in cell viability (M238P) [%]	reduction in cell viability (M238R) [%]	reduction in cell viability (M249P) [%]	reduction in cell viability (M249R) [%]	reduction in cell viability (UACC62P) [%]	reduction in cell viability (UACC62R) [%]
COC(=O)N1CCN(Cc2cccc(NC(=O)Nc3ccc(C)nc3)c2F)CC1 [Omecamtiv mecarbil]	< 0	< 0	< 0	< 0	< 0	< 0	< 0	< 0
O=c1cc(-c2ccc(O)c(O)c2)oc2cc(O)cc(O)c12 [Luteolin]	< 0	< 0	< 0	< 0	< 0	< 0	< 0	< 0
COc1ccc(S(=O)(=O)N(C(C)=O)c2ccccc2/C=C/c2cc[n+]([O-])cc2)cc1	21.1	32.6	55.8	71.6	32	44.7	45.7	88.3
OCCn1cc(-c2ccc3c(c2)CC/C3=N\O)c(-c2ccncc2)n1	8.5	< 0	17.5	< 0	10.3	< 0	51.3	< 0
CC(Oc1ccc(O)cc1)(P(=O)(O)O)P(=O)(O)O	< 0	7.12	< 0	< 0	< 0	< 0	< 0	< 0
O=C(CCc1ccc(O)cc1)c1c(O)cc(O)cc1O [Phloretin]	< 0	< 0	< 0	< 0	4.04	7.56	16.3	< 0
Cc1cc2nc3c(=O)[nH]c(=O)nc-3n(C[C@H](O)[C@H](O)[C@H](O)CO)c2cc1C	< 0	< 0	< 0	< 0	< 0	< 0	< 0	< 0
CCn1cc(-c2ccnc3[nH]c(-c4cccc(CN(C)C)c4)cc23)c(-c2ccc(NC(=O)N(C)C)cc2)n1	< 0	< 0	16.9	9.33	< 0	< 0	1.2	57.5
O=C(CCCCCCNC(=O)c1cnc(N(c2ccccc2)c2ccccc2)nc1)NO	< 0	< 0	< 0	< 0	< 0	< 0	< 0	< 0
O=C(c1ccc(Nc2nccc(-c3cc4ccccc4s3)n2)cc1)N1CCC(N2CCCC2)CC1	8.85	4.47	< 0	< 0	< 0	< 0	< 0	< 0
C[C@@H](O)[C@H]1C(=O)N2C(C(=O)O)=C(SCCNC=N)C[C@H]12 [Imipenem]	< 0	< 0	< 0	< 0	< 0	< 0	< 0	< 0
O=C(CN1C(=O)C2(CCCC2)NC[C@H]1c1cc(F)cc(F)c1)Nc1ccc2c(c1)C[C@@]1(C2)C(=O)Nc2ncccc21	< 0	< 0	< 0	< 0	< 0	< 0	< 0	< 0
OC[C@H]1O[C@@H](Oc2cc(O)cc(/C=C/c3ccc(O)cc3)c2)[C@H](O)[C@@H](O)[C@@H]1O [Polydatin]	3.35	< 0	< 0	< 0	< 0	< 0	< 0	< 0
CCCCc1oc2ccccc2c1C(=O)c1cc(I)c(OCCN(CC)CC)c(I)c1 [Amiodarone hydrochloride]	< 0	< 0	< 0	< 0	< 0	3.19	4.3	< 0
Cc1cc(Cl)ccc1OCCCC(=O)NO [Droxinostat]	< 0	< 0	< 0	< 0	< 0	< 0	< 0	< 0
CCCc1nc2c(C)cc(-c3nc4ccccc4n3C)cc2n1Cc1ccc(-c2ccccc2C(=O)O)cc1 [Telmisartan]	< 0	< 0	< 0	< 0	14.4	< 0	26.3	< 0
CCOC(=O)c1c(C)n(C)c2ccc(O)cc12 [Mecarbinate]	< 0	< 0	< 0	< 0	< 0	< 0	< 0	< 0
COc1cc2nc(N3CCCN(C)CC3)nc(NC3CCN(Cc4ccccc4)CC3)c2cc1OC	6.98	4.53	< 0	< 0	< 0	< 0	< 0	< 0
CC(C)(C)c1cnc(CSc2cnc(NC(=O)C3CCNCC3)s2)o1	57.2	60.8	102	58.6	94.4	98.7	90.3	84.2
N=C(N)NC(=N)NCCc1ccccc1 [Phenformin hydrochloride]	< 0	< 0	< 0	29.5	< 0	< 0	< 0	< 0
Nc1nc(F)nc2c1ncn2[C@@H]1O[C@H](COP(=O)(O)O)[C@@H](O)[C@@H]1O [Fludarabine phosphate]	< 0	< 0	< 0	< 0	< 0	0.18	< 0	< 0

Whole records, looked up by structure. Values in the order: reduction in cell viability (M229P) [%]	reduction in cell viability (M229R) [%]	reduction in cell viability (M238P) [%]	reduction in cell viability (M238R) [%]	reduction in cell viability (M249P) [%]	reduction in cell viability (M249R) [%]	reduction in cell viability (UACC62P) [%]	reduction in cell viability (UACC62R) [%]
CC(C)(C)c1cnc(CSc2cnc(NC(=O)C3CCNCC3)s2)o1 as listed: 57.2	60.8	102	58.6	94.4	98.7	90.3	84.2
Cc1cc(Cl)ccc1OCCCC(=O)NO [Droxinostat] as listed: < 0	< 0	< 0	< 0	< 0	< 0	< 0	< 0
COC(=O)N1CCN(Cc2cccc(NC(=O)Nc3ccc(C)nc3)c2F)CC1 [Omecamtiv mecarbil] as listed: < 0	< 0	< 0	< 0	< 0	< 0	< 0	< 0
CC(Oc1ccc(O)cc1)(P(=O)(O)O)P(=O)(O)O as listed: < 0	7.12	< 0	< 0	< 0	< 0	< 0	< 0
